Measured values reported in paper PMC8615856.
No constants are given. Whether binding was seen depends on the method and setting.

Sequences of proteins named here, by UniProt entry; tags and fusion partners are left off.
UniProt P00921: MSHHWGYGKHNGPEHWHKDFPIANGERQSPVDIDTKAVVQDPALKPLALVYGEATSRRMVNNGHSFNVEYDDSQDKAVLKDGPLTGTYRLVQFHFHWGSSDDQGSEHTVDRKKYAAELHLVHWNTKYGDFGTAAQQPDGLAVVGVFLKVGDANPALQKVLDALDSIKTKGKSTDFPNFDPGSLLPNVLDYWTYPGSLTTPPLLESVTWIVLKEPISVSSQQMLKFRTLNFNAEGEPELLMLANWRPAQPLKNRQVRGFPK

Target: bovine carbonic anhydrase B (bovine) (UniProt P00921)
Experiment: SEC; Superdex 200 10/300 GL, 50 mM sodium phosphate with citric acid, pH 2.7; BCAB before hydrolysis diluted to 0.004 mg/mL; both purified

bovine carbonic anhydrase B (from UniProt P00921 1-260) (enzyme)
binding: no binding (condition: diluted to 0.004 mg/mL)
